PMC10400976
No constants are given. Whether binding was seen depends on the method and setting. Binding seen in cells or lysates may run through a third protein. Binding can be weak; no strength is given. Where a sequence is shown, tags or fusion partners need not be part of it.

Sequences of proteins named here, by UniProt entry; tags and fusion partners are left off. A change or cut given only in a name is not applied to a line headed by its entry.
UniProt P11021: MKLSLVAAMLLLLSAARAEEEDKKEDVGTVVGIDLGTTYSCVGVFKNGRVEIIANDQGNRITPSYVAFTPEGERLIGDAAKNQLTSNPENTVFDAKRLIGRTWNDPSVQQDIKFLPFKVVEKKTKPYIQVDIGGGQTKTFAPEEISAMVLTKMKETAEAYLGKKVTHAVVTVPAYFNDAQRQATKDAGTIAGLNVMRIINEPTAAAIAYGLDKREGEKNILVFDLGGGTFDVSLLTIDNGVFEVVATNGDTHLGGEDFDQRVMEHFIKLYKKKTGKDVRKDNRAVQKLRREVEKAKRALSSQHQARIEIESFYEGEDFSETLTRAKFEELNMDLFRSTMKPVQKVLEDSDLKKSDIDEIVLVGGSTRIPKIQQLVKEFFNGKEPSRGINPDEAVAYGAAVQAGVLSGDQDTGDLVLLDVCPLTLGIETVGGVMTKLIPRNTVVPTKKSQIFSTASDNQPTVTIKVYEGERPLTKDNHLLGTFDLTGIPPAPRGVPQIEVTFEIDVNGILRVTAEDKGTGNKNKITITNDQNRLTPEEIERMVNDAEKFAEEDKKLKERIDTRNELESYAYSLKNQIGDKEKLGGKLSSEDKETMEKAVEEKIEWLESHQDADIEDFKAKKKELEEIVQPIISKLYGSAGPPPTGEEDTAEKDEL

Target: T1, ID2-Myc-FLAG (Inhibitor of DNA binding 2, epitope-tagged) (UniProt Q02363)
T1 sequence: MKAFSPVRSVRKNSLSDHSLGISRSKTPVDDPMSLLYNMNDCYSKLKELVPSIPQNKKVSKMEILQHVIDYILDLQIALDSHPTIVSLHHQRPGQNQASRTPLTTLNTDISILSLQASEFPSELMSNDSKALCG
Test: co-IP; ID2-Myc-FLAG and F-78(WT) both overexpressed; IP with anti-Myc antibody

binding: binds
Substance: F-78(WT), FLAG-tagged GRP78 (from UniProt P11021)
